# Values of other authors as cited in patent US20090291958A1, “Substituted PDE5 inhibitors” (Auspex Pharmaceuticals, Inc., priority 2006, published 2009).
# Some entries share one result that the patent states for a list of compounds.
# System: PDE6
# Conditions: share of patients; attributed to PDE6 modulation
structure (smiles),measurement,value
CCCc1nn(C)c2c(=O)[nH]c(-c3cc(S(=O)(=O)N4CCN(C)CC4)ccc3OCC)nc12 [sildenafil],"patients with side effects of chromatopsia, increased sensitivity to light, and blurred vision",2-3%
